Laboratory results from patent US8389728B2, “Pollen tube stimulants from Arabidopsis pistils” (The Arizona Board of Regents, priority 2009, dated 2013).
Some results were stated once for a whole list of compounds, not compound by compound.

Legend:
[1] = system: pollen from the Arabidopsis Columbia strain; experiment: Time course of pollen germination and tube growth, Columbia strain; type: cell-based, Arabidopsis thaliana
Procedure: (§1) Using the optimal concentration of compound for pollen tube stimulation (0.02 mg compound dispensed into 50 μL of pollen growth medium) pollen tube growth were time lapse imaged for a duration of greater than 12 hours. […] For example, Landsberg pollen grew about 130 μm longer in the presence of compound A compared to compound B (FIG. 11B).

[2] = system: pollen from the Landsberg strain; experiment: Time course of pollen germination and tube growth, Landsberg strain; type: cell-based, Arabidopsis thaliana
Procedure: as §1

Structure (SMILES) | time after exposure by which pollen showed robust growth [1] | time required before exhibiting germination and pollen tube growth [2]
C[S+]([O-])N1CCCC2CCCCC21 (stereo not shown) [Compound A, 1-Methylsulfinyldecahydroquinoline] | ≤ 3 h | at least 5 hours
C[S+]([O-])N1CCC2CCCCC2C1 (stereo not shown) [Compound B, 2-Methylsulfinyldecahydroisoquinoline] | ≤ 3 h | at least 5 hours
